Reference: article PMC6731274
Results are given in words; binding and its absence hold for the method and conditions named. Binding seen in cells or lysates may run through a third protein. Some entries that bind do so weakly or less than the wild type.

Biological target: myc-tagged BARS expressed in HeLa cells (UniProt Q9Z2F5)
Experiment: co-IP; HeLa cells transfected with construct as indicated; immunoprecipitation for the myc tag, immunoblotting for ALDH7A1

B1: ALDH7A1 in HeLa cells (enzyme, UniProt P49419 27-539)
chain: AFMSTLLINQPQYAWLKELGLREENEGVYNGSWGGRGEVITTYCPANNEPIARVRQASVADYEETVKKAREAWKIWADIPAPKRGEIVRQIGDALREKIQVLGSLVSLEMGKILVEGVGEVQEYVDICDYAVGLSRMIGGPILPSERSGHALIEQWNPVGLVGIITAFNFPVAVYGWNNAIAMICGNVCLWKGAPTTSLISVAVTKIIAKVLEDNKLPGAICSLTCGGADIGTAMAKDERVNLLSFTGSTQVGKQVGLMVQERFGRSLLELGGNNAIIAFEDADLSLVVPSALFAAVGTAGQRCTTARRLFIHESIHDEVVNRLKKAYAQIRVGNPWDPNVLYGPLHTKQAVSMFLGAVEEAKKEGGTVVYGGKVMDRPGNYVEPTIVTGLGHDASIAHTETFAPILYVFKFKNEEEVFAWNNEVKQGLSSSIFTKDLGRIFRWLGPKGSDCGIVNVNIPTSGAEIGGAFGGEKHTGGGRESGSDAWKQYMRRSTCTINYSKDLPLAQGIKFQ
  binding: binds
